# Assay results as given in patent US9173935B2, “Phospholipid drug analogs” (Telormedix SA, priority 2010, dated 2015).
# Like-named read-outs stand apart in the source and are kept apart here.
# Conditions: human, plasma, 4.16 μM
structure (smiles),measurement,setting,value
"CCN(CC)CC(=O)Nc1c(C)cccc1C [Lidocaine, reference compound]",% remaining,0 h,100%
same,% remaining,1 h,107.1 ± 7.7%
same,% remaining,5 h,105.1 ± 3.3%
